Reference: the supplement of paper PMC10849652
The list shows a part of the results.

Sequences of proteins named here, by UniProt entry; tags and fusion partners are left off. A change or cut given only in a name is not applied to a line headed by its entry.
UniProt Q9NQS1: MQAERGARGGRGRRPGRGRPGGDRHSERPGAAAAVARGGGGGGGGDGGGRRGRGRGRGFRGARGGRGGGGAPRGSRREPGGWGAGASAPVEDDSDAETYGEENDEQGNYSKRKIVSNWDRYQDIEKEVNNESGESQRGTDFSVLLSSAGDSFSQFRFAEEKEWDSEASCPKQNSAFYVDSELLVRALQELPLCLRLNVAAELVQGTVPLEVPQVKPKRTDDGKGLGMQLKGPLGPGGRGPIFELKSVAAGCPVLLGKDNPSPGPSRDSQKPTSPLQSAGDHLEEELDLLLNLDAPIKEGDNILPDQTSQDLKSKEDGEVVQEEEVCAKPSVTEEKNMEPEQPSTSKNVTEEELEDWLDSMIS
UniProt Q8TBE0: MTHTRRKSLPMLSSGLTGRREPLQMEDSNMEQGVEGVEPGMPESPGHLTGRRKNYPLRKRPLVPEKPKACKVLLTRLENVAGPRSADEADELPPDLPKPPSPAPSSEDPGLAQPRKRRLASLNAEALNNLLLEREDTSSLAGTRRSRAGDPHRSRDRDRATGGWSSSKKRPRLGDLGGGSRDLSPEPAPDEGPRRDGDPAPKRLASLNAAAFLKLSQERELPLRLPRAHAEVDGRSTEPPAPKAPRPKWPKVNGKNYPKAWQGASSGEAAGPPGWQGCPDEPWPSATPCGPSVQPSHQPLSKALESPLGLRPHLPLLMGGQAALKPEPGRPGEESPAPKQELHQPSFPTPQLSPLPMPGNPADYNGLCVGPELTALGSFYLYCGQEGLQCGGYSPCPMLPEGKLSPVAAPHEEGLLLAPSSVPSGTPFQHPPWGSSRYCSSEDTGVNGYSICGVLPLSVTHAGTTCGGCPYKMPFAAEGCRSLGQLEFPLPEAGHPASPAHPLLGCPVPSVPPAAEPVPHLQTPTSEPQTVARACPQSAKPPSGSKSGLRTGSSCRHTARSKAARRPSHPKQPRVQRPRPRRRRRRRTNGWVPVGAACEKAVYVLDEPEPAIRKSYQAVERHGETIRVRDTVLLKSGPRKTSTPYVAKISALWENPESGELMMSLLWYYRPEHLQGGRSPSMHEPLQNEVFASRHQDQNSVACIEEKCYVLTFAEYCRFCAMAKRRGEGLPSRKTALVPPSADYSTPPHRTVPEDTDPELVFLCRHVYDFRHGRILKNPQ
UniProt Q07817, whole entry, looked up: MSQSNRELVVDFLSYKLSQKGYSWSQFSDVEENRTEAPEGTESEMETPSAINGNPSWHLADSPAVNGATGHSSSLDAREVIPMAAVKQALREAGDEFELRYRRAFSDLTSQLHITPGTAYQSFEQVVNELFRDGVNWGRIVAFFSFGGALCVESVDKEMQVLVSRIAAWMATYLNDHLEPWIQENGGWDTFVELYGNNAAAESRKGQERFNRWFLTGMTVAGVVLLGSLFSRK
UniProt O15382: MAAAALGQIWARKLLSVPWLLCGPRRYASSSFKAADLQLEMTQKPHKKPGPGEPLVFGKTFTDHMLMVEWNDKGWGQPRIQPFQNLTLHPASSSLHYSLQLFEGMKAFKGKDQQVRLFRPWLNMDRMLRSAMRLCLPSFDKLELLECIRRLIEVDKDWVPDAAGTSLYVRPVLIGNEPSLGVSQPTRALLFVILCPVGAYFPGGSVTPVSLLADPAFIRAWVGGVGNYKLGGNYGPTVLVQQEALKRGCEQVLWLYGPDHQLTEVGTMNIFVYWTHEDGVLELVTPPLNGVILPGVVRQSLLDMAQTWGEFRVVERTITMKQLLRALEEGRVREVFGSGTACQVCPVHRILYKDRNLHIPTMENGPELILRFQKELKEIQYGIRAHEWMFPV
UniProt Q14692: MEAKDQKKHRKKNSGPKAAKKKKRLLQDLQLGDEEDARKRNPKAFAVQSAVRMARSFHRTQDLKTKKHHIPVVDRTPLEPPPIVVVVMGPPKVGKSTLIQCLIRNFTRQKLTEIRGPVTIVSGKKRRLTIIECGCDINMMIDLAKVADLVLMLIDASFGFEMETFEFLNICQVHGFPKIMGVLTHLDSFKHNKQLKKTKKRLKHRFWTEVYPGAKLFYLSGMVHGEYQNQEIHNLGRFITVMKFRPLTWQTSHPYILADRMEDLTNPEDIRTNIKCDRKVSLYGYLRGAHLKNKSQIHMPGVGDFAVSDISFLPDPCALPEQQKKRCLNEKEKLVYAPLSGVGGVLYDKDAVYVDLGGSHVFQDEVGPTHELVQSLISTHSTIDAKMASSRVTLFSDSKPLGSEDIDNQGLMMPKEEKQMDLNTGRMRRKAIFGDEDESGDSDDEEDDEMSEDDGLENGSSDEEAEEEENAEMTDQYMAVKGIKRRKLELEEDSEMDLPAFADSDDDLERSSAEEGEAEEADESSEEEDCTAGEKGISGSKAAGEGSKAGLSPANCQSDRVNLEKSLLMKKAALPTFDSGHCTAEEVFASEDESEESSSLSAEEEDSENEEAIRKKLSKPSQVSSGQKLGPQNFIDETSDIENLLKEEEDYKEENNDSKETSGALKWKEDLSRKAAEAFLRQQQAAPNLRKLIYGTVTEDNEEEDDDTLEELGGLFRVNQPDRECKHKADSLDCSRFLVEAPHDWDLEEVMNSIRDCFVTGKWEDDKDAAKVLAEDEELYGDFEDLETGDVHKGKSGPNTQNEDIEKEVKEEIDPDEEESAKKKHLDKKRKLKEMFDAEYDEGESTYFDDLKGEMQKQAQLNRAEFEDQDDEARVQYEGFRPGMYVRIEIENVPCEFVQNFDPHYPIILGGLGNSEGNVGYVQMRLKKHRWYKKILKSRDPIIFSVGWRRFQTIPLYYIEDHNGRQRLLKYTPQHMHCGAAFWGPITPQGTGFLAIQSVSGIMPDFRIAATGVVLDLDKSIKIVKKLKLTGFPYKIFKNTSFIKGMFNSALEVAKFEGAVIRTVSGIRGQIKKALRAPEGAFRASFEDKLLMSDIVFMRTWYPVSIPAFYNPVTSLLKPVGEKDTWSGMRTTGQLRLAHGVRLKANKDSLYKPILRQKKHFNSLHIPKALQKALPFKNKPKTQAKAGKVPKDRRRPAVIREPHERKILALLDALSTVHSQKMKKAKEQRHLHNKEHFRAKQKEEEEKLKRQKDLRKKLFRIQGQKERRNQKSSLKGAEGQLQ
UniProt O95429: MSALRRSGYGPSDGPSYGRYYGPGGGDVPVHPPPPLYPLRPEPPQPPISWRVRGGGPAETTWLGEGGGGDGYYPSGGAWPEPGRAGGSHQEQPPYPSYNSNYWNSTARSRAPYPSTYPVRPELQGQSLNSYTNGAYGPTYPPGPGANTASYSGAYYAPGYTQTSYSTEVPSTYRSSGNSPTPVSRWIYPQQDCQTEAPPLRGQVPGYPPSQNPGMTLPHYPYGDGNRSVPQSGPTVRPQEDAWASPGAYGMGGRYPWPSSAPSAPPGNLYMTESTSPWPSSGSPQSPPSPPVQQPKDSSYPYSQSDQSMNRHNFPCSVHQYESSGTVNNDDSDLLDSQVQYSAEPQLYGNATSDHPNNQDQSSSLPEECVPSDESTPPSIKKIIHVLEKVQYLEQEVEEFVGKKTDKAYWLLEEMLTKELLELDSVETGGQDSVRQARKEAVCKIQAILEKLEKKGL
UniProt O00512: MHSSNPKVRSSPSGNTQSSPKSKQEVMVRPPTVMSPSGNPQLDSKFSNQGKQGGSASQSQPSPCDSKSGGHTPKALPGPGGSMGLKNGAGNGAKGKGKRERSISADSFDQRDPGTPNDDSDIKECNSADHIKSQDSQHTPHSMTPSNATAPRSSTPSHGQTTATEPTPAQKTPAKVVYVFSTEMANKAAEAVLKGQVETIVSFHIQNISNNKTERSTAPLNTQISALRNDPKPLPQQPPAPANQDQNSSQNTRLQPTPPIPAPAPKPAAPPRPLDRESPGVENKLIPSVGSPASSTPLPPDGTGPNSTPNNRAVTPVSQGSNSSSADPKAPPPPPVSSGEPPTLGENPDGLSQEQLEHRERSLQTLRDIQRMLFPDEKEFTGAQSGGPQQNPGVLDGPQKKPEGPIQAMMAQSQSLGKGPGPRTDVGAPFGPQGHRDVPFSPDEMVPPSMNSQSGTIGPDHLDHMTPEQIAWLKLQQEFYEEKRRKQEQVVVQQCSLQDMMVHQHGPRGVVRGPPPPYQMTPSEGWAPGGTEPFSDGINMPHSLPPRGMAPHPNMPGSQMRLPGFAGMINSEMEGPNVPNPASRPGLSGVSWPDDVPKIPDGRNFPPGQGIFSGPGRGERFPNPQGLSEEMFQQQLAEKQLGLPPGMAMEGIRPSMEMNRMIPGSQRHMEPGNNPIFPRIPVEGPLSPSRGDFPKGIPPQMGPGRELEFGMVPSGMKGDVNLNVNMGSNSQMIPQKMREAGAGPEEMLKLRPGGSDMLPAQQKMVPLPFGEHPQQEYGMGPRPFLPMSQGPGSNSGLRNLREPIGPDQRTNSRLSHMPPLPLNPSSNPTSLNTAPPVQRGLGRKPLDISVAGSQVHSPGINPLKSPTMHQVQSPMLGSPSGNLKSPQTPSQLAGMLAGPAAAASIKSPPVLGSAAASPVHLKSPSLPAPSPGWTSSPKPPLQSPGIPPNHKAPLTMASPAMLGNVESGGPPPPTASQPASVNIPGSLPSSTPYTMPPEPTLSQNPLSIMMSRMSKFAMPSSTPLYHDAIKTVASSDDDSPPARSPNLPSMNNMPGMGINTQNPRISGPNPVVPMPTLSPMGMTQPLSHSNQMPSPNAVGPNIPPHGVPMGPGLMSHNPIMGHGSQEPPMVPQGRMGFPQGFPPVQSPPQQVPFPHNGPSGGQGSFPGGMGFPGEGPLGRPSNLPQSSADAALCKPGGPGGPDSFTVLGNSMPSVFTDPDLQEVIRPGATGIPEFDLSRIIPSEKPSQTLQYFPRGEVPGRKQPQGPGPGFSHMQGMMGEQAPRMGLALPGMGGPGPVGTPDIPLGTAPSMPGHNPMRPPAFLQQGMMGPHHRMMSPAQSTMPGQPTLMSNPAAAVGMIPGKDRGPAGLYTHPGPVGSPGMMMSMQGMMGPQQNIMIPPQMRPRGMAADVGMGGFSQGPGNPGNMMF
UniProt Q07812, whole entry, looked up: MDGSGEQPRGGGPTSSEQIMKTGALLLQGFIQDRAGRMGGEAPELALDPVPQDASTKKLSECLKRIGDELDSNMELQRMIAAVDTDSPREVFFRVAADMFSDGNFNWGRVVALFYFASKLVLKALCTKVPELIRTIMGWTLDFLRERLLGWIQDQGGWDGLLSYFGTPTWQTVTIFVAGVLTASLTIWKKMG
UniProt Q5VW32: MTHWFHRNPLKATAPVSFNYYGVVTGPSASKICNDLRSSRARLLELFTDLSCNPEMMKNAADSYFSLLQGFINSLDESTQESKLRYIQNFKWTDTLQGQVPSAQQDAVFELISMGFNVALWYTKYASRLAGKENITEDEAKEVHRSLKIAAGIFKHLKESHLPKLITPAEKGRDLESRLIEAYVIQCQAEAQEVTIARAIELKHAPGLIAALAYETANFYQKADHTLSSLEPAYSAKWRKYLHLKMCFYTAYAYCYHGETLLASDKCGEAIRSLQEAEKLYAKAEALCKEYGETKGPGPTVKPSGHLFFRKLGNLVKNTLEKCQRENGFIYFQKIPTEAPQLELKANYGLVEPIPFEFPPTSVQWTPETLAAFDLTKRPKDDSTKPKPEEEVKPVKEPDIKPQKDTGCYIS
UniProt Q9H3K6: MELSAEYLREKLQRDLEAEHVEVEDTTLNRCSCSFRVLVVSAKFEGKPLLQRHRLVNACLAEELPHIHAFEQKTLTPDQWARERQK
UniProt Q9Y276: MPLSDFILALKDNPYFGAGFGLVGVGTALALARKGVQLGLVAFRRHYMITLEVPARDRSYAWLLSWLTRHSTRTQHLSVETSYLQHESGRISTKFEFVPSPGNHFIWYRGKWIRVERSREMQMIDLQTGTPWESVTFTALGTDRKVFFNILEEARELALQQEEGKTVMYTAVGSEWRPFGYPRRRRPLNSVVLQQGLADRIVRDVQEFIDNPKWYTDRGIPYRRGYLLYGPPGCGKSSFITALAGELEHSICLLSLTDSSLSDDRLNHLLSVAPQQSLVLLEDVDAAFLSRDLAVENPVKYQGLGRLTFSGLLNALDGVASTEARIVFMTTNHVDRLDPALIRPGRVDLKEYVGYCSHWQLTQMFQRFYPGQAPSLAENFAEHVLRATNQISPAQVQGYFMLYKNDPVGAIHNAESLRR
UniProt P78537: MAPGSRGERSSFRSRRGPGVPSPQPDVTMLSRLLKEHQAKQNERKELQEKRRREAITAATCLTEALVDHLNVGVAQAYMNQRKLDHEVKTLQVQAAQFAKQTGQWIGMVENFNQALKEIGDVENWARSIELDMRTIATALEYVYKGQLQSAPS
UniProt Q96GS4: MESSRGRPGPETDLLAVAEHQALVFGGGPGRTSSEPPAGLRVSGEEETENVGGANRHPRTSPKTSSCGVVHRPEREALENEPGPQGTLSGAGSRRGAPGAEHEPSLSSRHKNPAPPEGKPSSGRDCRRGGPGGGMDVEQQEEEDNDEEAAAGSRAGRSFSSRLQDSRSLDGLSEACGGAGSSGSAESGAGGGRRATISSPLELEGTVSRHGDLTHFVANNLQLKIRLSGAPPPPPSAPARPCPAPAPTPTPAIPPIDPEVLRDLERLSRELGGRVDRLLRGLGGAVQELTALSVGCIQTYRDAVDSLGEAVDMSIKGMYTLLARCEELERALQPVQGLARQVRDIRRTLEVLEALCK

Compound: c1cn2cc(-c3ccc4cn[nH]c4c3)nc(Nc3ccc(N4CCOCC4)cc3)c2n1 [entospletinib]
Experiment: log2 fold change, soluble protein after heating vs DMSO (PISA); higher = thermal stabilisation; K562 cells, 10 uM, 30 min; active = over 0.2 and 3.5 SD of the protein, either way, in both replicates (recomputed)
Method in brief: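 Soluble protein was defined as the supernatant after 21,000xg for 90 min. It came from K562 cells at 2×10^6 cells/mL given 10 μM compound for 30 min, heated in aliquots for 3 min across 48°C-58°C, pooled, and extracted in PBS with 0.5% NP-40 at 4°C, and was quantified by TMTpro 16plex LC-MS/MS with equalised channel sums. Thermal stability against control samples, from duplicates, is reported as log2 fold change.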

log2 fold change, inactive:
AVEN (UniProt Q9NQS1) 0.016
ATXN2 (UniProt F8W0B5) 0.134
BCAS3 isoform 8 (UniProt Q9H6U6) 0.127
BIRC6 (UniProt Q9NR09) -0.147
BCR (UniProt P11274) 0.341
AZGP1 (UniProt P25311) -0.075
BAHD1 (UniProt Q8TBE0) 0.012
B3GNT2 (UniProt Q9NY97) -0.053
AURKAIP1 (UniProt Q9NWT8) 0.068
BCL2L1 (UniProt Q07817) -0.078
BEX4 (UniProt Q9NWD9) -0.055
AURKB isoform 5 (UniProt Q96GD4) 0.339
BCAT2 (UniProt O15382) 0.014
BIRC5 (UniProt O15392) -0.094
BCAS2 (UniProt O75934) 0.066
BNIP2 (UniProt H7C096) -0.069
ATXN2L (UniProt Q8WWM7) 0.022
BMS1 (UniProt Q14692) -0.046
BAG4 (UniProt O95429) 0.042
ATXN10 (UniProt Q9UBB4) -0.021
BCL2L12 (UniProt Q9HB09) -0.035
BCL9 (UniProt O00512) 0.036
BAX isoform 2 (UniProt Q07812) 0.033
BORCS5 (UniProt Q969J3) 0.089
BROX (UniProt Q5VW32) -0.003
BACH1 (UniProt O14867) 0.041
BNIP3 (UniProt Q12983) -0.093
BAG6 isoform 3 (UniProt P46379) 0.01
BCL2L11 (UniProt O43521) 0.142
BOLA2 (UniProt Q9H3K6) 0
BCS1L (UniProt Q9Y276) -0.002
BLOC1S1 (UniProt P78537) 0.012
BORCS6 (UniProt Q96GS4) 0.047

Random excerpt: 3 records from the list.
log2 fold change, inactive:
BAG6 isoform 3 (UniProt P46379) 0.01
ATXN10 (UniProt Q9UBB4) -0.021
BCL2L1 (UniProt Q07817) -0.078
